Laboratory results as given in the supplement of paper PMC6411743.
± gives the standard deviation of the averaged measurements. This is one part of the list.

The chains behind the UniProt entries cited, without tags or fusion partners. Where a name states a change or a piece, a line headed by the entry shows the natural chain unless it says otherwise.
UniProt P49588, whole entry: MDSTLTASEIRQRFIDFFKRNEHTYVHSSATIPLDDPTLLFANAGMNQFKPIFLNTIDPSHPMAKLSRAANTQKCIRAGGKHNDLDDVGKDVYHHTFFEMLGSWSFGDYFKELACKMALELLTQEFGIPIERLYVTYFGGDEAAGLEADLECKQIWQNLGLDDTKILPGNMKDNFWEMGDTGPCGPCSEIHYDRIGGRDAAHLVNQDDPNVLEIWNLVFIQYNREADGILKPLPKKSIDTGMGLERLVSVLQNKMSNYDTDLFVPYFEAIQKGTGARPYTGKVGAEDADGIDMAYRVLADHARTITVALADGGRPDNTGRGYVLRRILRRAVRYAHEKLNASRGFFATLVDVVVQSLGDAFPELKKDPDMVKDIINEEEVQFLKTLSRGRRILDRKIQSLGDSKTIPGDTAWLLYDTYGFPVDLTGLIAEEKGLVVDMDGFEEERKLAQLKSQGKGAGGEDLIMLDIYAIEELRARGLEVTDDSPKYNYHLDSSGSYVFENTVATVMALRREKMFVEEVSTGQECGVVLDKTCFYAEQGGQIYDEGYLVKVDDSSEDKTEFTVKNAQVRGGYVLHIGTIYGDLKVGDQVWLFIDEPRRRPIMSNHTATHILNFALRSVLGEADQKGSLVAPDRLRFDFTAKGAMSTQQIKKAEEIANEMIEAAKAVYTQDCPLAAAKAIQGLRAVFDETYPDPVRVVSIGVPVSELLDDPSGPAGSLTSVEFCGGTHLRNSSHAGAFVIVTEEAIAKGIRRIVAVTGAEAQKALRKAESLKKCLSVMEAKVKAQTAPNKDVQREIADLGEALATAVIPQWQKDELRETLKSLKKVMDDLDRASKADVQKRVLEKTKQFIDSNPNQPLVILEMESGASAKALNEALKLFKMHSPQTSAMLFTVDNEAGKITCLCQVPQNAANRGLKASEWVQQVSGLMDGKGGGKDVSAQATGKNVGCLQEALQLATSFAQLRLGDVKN
UniProt P43155: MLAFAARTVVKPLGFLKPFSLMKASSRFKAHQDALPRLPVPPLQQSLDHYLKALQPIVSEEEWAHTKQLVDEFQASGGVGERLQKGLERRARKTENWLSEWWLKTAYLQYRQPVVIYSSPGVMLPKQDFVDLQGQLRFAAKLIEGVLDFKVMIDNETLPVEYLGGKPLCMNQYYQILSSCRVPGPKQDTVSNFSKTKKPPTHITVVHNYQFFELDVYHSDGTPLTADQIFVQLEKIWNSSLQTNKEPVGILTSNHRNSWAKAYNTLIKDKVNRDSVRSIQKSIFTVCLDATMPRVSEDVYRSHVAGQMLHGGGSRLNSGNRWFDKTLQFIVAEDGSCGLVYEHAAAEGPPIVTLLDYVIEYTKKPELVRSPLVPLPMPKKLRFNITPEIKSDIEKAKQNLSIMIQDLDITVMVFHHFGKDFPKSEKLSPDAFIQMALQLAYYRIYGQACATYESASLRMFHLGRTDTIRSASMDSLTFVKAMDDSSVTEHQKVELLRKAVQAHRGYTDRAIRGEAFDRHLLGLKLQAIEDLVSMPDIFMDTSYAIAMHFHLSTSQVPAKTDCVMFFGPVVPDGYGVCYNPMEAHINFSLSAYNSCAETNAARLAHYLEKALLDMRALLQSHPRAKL
UniProt P36542: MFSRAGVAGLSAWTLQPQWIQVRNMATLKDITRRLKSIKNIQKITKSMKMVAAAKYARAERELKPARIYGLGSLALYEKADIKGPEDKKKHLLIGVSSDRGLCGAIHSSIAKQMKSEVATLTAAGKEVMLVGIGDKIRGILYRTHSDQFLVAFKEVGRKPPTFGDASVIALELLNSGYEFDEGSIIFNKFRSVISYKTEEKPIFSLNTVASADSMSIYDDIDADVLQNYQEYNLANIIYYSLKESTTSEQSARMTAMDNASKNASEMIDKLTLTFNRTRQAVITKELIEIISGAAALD
UniProt P40855: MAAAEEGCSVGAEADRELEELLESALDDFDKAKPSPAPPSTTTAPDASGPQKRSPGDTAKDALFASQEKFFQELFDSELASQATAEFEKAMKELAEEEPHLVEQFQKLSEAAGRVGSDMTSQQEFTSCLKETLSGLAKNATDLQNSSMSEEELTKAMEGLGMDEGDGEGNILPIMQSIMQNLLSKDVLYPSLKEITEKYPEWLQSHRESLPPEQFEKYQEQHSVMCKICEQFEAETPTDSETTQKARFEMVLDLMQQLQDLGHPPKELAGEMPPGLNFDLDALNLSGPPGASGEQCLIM
UniProt P36404: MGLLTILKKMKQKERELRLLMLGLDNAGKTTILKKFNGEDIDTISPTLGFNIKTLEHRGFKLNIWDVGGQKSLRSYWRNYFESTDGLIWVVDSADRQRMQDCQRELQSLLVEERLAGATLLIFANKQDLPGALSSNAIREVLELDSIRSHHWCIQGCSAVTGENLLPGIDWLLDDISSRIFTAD
UniProt P48556: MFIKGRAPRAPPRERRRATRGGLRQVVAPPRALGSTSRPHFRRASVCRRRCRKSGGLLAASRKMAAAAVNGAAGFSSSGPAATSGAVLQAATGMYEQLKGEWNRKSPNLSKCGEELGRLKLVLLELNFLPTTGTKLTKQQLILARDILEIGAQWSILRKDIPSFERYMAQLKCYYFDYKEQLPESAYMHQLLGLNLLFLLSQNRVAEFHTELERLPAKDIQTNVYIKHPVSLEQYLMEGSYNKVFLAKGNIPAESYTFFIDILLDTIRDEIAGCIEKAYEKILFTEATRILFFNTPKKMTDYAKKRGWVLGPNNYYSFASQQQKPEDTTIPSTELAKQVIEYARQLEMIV
UniProt P28066: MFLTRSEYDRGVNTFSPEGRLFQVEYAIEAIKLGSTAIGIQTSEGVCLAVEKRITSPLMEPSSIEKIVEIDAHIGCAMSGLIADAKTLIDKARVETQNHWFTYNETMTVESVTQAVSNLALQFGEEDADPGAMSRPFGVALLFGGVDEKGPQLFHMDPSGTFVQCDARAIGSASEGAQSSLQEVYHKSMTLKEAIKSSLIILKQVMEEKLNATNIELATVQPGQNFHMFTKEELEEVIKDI
UniProt P46977: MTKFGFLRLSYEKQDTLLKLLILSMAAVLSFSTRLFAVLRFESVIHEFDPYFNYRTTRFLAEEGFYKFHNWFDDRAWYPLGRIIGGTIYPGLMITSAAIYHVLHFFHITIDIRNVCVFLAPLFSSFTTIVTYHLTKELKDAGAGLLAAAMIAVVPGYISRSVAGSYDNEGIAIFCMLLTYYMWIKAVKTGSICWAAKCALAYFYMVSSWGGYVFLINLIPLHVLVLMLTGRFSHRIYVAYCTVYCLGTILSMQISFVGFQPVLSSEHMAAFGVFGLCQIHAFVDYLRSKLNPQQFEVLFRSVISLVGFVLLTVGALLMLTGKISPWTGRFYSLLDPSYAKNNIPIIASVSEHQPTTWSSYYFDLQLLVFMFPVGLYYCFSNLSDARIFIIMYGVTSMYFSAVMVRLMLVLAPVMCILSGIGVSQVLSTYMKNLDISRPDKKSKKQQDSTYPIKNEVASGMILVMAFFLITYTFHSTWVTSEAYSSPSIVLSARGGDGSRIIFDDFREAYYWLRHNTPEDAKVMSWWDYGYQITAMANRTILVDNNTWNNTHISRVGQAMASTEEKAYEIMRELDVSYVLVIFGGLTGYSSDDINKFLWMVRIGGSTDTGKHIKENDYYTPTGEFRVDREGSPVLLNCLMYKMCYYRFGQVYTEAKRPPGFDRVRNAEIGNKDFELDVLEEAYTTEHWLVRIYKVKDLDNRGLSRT
UniProt P28331, whole entry: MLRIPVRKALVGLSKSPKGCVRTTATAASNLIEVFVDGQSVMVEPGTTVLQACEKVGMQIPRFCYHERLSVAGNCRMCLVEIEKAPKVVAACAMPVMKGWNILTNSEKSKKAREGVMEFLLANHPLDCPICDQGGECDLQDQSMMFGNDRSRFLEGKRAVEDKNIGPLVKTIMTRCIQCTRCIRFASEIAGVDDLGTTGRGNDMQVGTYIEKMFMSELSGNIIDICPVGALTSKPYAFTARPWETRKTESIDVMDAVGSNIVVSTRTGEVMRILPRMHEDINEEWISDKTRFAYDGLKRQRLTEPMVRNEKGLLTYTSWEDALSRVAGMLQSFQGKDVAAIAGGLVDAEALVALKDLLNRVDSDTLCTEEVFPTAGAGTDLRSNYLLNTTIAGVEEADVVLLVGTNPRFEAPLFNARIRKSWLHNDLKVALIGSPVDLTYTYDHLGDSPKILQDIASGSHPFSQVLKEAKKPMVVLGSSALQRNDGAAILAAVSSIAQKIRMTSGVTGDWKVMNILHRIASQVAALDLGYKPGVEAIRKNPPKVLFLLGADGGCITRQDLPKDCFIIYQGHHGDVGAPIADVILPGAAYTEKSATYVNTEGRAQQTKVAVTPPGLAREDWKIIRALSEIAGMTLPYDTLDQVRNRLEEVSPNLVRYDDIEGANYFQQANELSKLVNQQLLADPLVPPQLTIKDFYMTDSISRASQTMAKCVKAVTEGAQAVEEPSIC
UniProt P38646: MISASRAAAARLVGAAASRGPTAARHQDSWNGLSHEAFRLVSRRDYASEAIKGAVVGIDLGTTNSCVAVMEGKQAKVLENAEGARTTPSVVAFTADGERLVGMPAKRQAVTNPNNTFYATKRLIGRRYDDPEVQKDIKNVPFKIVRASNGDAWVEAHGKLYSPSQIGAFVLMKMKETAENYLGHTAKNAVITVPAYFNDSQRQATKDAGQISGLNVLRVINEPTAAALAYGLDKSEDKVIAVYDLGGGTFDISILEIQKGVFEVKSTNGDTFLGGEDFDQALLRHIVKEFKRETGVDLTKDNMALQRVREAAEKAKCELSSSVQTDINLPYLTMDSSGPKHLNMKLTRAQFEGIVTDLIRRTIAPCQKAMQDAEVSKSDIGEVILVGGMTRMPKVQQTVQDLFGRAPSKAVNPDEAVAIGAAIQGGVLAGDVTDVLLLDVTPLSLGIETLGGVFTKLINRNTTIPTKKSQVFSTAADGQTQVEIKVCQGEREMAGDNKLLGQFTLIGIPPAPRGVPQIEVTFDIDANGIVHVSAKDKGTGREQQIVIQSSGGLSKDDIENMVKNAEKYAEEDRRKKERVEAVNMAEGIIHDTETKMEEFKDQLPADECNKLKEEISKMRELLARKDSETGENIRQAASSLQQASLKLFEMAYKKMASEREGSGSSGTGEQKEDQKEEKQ
UniProt P49736, whole entry: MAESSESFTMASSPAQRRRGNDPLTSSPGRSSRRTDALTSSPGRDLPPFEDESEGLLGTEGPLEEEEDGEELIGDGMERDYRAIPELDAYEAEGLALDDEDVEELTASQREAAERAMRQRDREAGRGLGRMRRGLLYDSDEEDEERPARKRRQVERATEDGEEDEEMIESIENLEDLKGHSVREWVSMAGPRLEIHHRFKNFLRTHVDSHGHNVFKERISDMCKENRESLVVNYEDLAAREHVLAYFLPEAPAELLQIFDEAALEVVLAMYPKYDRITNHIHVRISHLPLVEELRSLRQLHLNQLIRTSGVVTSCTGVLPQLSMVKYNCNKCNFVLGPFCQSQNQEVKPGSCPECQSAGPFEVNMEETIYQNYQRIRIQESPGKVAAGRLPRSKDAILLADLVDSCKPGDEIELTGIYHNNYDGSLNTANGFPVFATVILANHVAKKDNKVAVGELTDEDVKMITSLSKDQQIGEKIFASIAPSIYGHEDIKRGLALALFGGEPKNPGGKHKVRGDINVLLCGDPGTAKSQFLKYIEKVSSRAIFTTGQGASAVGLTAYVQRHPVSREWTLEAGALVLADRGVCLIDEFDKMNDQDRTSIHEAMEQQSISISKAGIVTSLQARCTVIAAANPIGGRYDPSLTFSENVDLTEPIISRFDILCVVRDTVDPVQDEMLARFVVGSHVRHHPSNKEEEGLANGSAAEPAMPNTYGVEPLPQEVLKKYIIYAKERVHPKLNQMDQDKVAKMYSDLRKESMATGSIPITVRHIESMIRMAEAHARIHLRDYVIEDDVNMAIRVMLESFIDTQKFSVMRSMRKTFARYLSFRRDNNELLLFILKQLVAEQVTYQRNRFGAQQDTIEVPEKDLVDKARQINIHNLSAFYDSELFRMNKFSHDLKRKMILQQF
UniProt P30419: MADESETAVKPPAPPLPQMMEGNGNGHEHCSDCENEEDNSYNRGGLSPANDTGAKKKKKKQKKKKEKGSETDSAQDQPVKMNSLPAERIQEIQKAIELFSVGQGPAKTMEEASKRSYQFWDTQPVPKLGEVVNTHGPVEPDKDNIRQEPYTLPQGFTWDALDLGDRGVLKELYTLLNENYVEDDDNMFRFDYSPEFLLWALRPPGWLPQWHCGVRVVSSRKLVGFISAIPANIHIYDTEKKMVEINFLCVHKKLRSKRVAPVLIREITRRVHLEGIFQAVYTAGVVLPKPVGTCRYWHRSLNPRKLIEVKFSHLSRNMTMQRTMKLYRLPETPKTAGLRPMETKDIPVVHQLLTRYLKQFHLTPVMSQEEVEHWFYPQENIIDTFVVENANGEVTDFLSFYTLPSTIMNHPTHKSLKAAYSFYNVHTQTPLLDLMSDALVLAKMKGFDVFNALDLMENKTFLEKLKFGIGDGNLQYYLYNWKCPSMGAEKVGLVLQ

Compound: Nc1nc2c(ncn2[C@@H]2O[C@H](COP(=O)(O)OP(=O)(O)OP(=O)(O)O)[C@@H](O)[C@H]2O)c(=O)[nH]1 [guanosine triphosphate]
Experiment: NP40-soluble protein abundance relative to vehicle (solubility fold change) (ratio); higher = more soluble protein in presence of GTP
Procedure, shortened: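 Across three independent experiments, values are fold changes against the detergent-processed vehicle for each replicate, based on vsn-normalised intensities. The samples were Jurkat crude lysate treated with eight concentrations (0.1 to 10 mM) for 10 min at room temperature and then 3 min at 37 °C. Lysate was solubilised with 0.8% NP40 and benzonase, ultracentrifuged, and the supernatant analysed by TMT-labelled LC-MS/MS.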

Target	NP40-soluble protein abundance (concentration: 0.1mM)	NP40-soluble protein abundance (concentration: 0.5mM)	NP40-soluble protein abundance (concentration: 1mM)	NP40-soluble protein abundance (concentration: 2mM)	NP40-soluble protein abundance (concentration: 4mM)	NP40-soluble protein abundance (concentration: 6mM)	NP40-soluble protein abundance (concentration: 8mM)	NP40-soluble protein abundance (concentration: 10mM)
UniProt P29350 and related entries	0.97 ± 0.04	1.01 ± 0.043	0.936 ± 0.041	0.895 ± 0.049	0.868 ± 0.055	0.893 ± 0.059	0.871 ± 0.047	0.844 ± 0.078
NAMPT (UniProt P43490)	0.996 ± 0.022	0.979 ± 0.017	0.927 ± 0.029	0.914 ± 0.033	0.92 ± 0.043	0.895 ± 0.014	0.869 ± 0.038	0.844 ± 0.067
UniProt P49588 and related entries	0.95 ± 0.017	0.981 ± 0.025	0.928 ± 0.032	0.895 ± 0.034	0.876 ± 0.043	0.905 ± 0.041	0.877 ± 0.04	0.848 ± 0.052
UniProt P28482	0.997 ± 0.047	1 ± 0.037	0.94 ± 0.058	0.919 ± 0.059	0.899 ± 0.064	0.909 ± 0.06	0.899 ± 0.08	0.852 ± 0.08
UniProt P32121 and related entries	1.02 ± 0.026	1.03 ± 0.028	0.971 ± 0.022	0.982 ± 0.048	0.972 ± 0.04	0.946 ± 0.053	0.95 ± 0.059	0.95 ± 0.088
TXLNA (UniProt P40222)	0.955 ± 0.021	0.9 ± 0.039	1.07 ± 0.064	1.07 ± 0.1	1.12 ± 0.12	1.2 ± 0.17	1.12 ± 0.21	1.37 ± 0.26
UniProt P43155 and related entries	1.09 ± 0.042	1.06 ± 0.012	1.02 ± 0.019	0.975 ± 0.032	1.03 ± 0.07	1 ± 0.047	0.995 ± 0.085	0.994 ± 0.072
UniProt P36542 and related entries	1 ± 0.016	1.04 ± 0.058	0.982 ± 0.05	0.986 ± 0.096	0.985 ± 0.096	1.01 ± 0.11	0.974 ± 0.086	0.922 ± 0.069
UniProt P50213 and related entries	0.968 ± 0.016	0.954 ± 0.011	0.923 ± 0.026	0.908 ± 0.029	0.909 ± 0.027	0.897 ± 0.023	0.87 ± 0.07	0.85 ± 0.052
UniProt P40855 and related entries	0.979 ± 0.047	0.929 ± 0.06	1.05 ± 0.059	1.03 ± 0.083	1 ± 0.056	1 ± 0.079	1.03 ± 0.073	1.14 ± 0.021
TUFM (UniProt P49411)	0.98912 ± 0.00053	1.02 ± 0.051	0.952 ± 0.013	0.941 ± 0.019	0.922 ± 0.021	0.9086 ± 0.0014	0.904 ± 0.042	0.868 ± 0.053
ARL2 (UniProt P36404)	1.04 ± 0.03	1.02 ± 0.037	0.959 ± 0.024	1.01 ± 0.047	0.983 ± 0.014	0.92 ± 0.015	0.952 ± 0.052	0.9 ± 0.05
RPL34 (UniProt P49207)	0.87 ± 0.083	0.87 ± 0.081	1.01 ± 0.17	0.923 ± 0.17	0.851 ± 0.22	0.822 ± 0.21	0.581 ± 0.16	0.812 ± 0.23
UniProt P48556 and related entries	1.07 ± 0.12	1.01 ± 0.17	1.09 ± 0.17	1.13 ± 0.22	1.13 ± 0.16	1.09 ± 0.21	1.05 ± 0.16	1.02 ± 0.2
GTF2E2 (UniProt P29084)	0.969 ± 0.013	0.975 ± 0.063	1.02 ± 0.058	0.977 ± 0.09	0.971 ± 0.095	1.01 ± 0.087	1.03 ± 0.088	1.04 ± 0.08
UniProt P28702 and related entries	1.02 ± 0.047	0.993 ± 0.045	0.992 ± 0.043	0.978 ± 0.013	0.987 ± 0.067	0.964 ± 0.063	0.971 ± 0.019	0.955 ± 0.049
RPL12 (UniProt P30050)	0.935 ± 0.018	0.946 ± 0.039	1.01 ± 0.059	0.919 ± 0.043	0.845 ± 0.079	0.823 ± 0.093	0.727 ± 0.12	0.828 ± 0.1
UniProt P28066 and related entries	0.937 ± 0.079	0.965 ± 0.037	0.987 ± 0.073	1.04 ± 0.12	1.02 ± 0.14	1.04 ± 0.14	1.01 ± 0.096	1 ± 0.14
STT3A (UniProt P46977)	0.995 ± 0.037	1.03 ± 0.055	0.912 ± 0.051	0.902 ± 0.1	0.912 ± 0.045	0.905 ± 0.057	0.88 ± 0.0097	0.858 ± 0.03
CASP2 (UniProt P42575)	1.02 ± 0.02	0.988 ± 0.07	1 ± 0.036	0.957 ± 0.076	0.939 ± 0.04	0.914 ± 0.078	0.953 ± 0.023	0.916 ± 0.062
LRPPRC (UniProt P42704)	1.01 ± 0.025	1.02 ± 0.035	0.939 ± 0.017	0.933 ± 0.054	0.913 ± 0.041	0.902 ± 0.042	0.865 ± 0.02	0.855 ± 0.033
UniProt P28331 and related entries	1.05 ± 0.054	1.06 ± 0.086	1.07 ± 0.1	1.11 ± 0.14	1.14 ± 0.17	1.12 ± 0.17	1.11 ± 0.15	1.1 ± 0.16
HSPA9 (UniProt P38646)	0.919 ± 0.08	0.929 ± 0.067	0.968 ± 0.073	0.91 ± 0.09	0.921 ± 0.089	0.922 ± 0.076	0.938 ± 0.067	0.937 ± 0.096
MCM2 (UniProt P49736)	1.01 ± 0.052	1.07 ± 0.071	0.975 ± 0.074	0.985 ± 0.099	0.974 ± 0.1	0.983 ± 0.1	0.944 ± 0.083	0.929 ± 0.074
PEBP1 (UniProt P30086)	0.879 ± 0.07	0.901 ± 0.094	0.889 ± 0.099	0.832 ± 0.1	0.829 ± 0.13	0.848 ± 0.1	0.825 ± 0.1	0.827 ± 0.13
NMT1 (UniProt P30419)	1.08 ± 0.027	1.041 ± 0.0069	1.02 ± 0.043	1.04 ± 0.052	1.1 ± 0.086	1.09 ± 0.061	1.09 ± 0.089	1.09 ± 0.099
UniProt P49840	0.981 ± 0.028	1.03 ± 0.029	0.913 ± 0.022	0.939 ± 0.02	0.921 ± 0.044	0.925 ± 0.021	0.875 ± 0.051	0.888 ± 0.051
RPL35 (UniProt P42766)	0.956 ± 0.073	0.957 ± 0.029	1.05 ± 0.066	1.03 ± 0.05	1.01 ± 0.16	0.967 ± 0.14	0.564 ± 0.024	1.09 ± 0.21

Some of the entries so far, with bars between the fields:
Target | NP40-soluble protein abundance (concentration: 0.1mM) | NP40-soluble protein abundance (concentration: 0.5mM) | NP40-soluble protein abundance (concentration: 1mM) | NP40-soluble protein abundance (concentration: 2mM) | NP40-soluble protein abundance (concentration: 4mM) | NP40-soluble protein abundance (concentration: 6mM) | NP40-soluble protein abundance (concentration: 8mM) | NP40-soluble protein abundance (concentration: 10mM)
TUFM (UniProt P49411) | 0.98912 ± 0.00053 | 1.02 ± 0.051 | 0.952 ± 0.013 | 0.941 ± 0.019 | 0.922 ± 0.021 | 0.9086 ± 0.0014 | 0.904 ± 0.042 | 0.868 ± 0.053
MCM2 (UniProt P49736) | 1.01 ± 0.052 | 1.07 ± 0.071 | 0.975 ± 0.074 | 0.985 ± 0.099 | 0.974 ± 0.1 | 0.983 ± 0.1 | 0.944 ± 0.083 | 0.929 ± 0.074
